Measurements published in publication PMC7819943, “Rice protein-binding microarrays: a tool to detect cis-acting elements near promoter regions in rice”.
The list shows a part of the results.

Amino acid sequences for entries named in this document (tags omitted).
UniProt Q0JBA9, entry or part of it: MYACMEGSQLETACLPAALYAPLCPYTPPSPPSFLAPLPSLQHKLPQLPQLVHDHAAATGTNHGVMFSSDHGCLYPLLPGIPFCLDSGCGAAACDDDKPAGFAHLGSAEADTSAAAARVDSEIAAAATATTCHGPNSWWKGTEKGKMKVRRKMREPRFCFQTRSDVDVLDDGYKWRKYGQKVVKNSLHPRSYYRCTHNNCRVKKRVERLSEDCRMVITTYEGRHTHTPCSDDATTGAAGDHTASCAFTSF

Target: OsWRKY34 (Oryza sativa, UniProt Q0JBA9 1-250)
Experiment: protein-binding microarray (RPBM); PBS, 2% BSA, 51.3 ng/ul salmon testes DNA, 50 uM zinc acetate, 200 nM TF, 25 C, 1 h; high values mean tight binding
Settings: protein: recombinant; tags: N-terminal polyhistidine and DsRed monomer fusion (pET32a); label: CyDye5-dUTP incorporated in the synthesized complementary strand; 3' TTTTT single-stranded linker to array surface; dsDNA, one strand shown
Outline: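 For the binding signal, per-feature fluorescence intensity was read in arbitrary units on an Axon 4000B scanner. Before scanning, a 2% BSA-blocked custom Agilent array made double-stranded with Cy5-dUTP was washed after 1 h at 25 °C with 200 nM protein and 50 µM zinc acetate. The proteins were Ni–NTA-purified transcription factors with N-terminal polyhistidine and DsRed fusions, expressed in E. coli BL21-CodonPlus.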

Row | Sequence | binding signal
1 | CATATTAAGGTTTTTTCATCGAAGTTTATTTTTCAGCCTTCGGAGTCACCTAGTGCAG | 8070 fluorescence intensity (a.u.)
2 | TGCACCTGGCCGCGTTGACCGTTCGAAATGTATATATTCCCGGAGTCACCTAGTGCAG | 19600 fluorescence intensity (a.u.)
3 | ATTGTGTGTTTGTGGTTGGTTGGCCAATAATGAATTGAAACGGAGTCACCTAGTGCAG | 8400 fluorescence intensity (a.u.)
4 | TGGGTGGGGTGGAGGGCCGAGCGCGAGAGATTTCGGAGAGCGGAGTCACCTAGTGCAG | 14900 fluorescence intensity (a.u.)
5 | CCCGCCGCGCGCCTCCTCCCCGCCTCGCCGCCGGCGCGCACGGAGTCACCTAGTGCAG | 8240 fluorescence intensity (a.u.)
6 | TCGACTGTCTCAAATCAGTTTGCTTTCTTGATCTTTCTGCCGGAGTCACCTAGTGCAG | 11200 fluorescence intensity (a.u.)
7 | GGGACGAAGATATCTCTCGTTTCATTTCATGCATATCACCCGGAGTCACCTAGTGCAG | 8250 fluorescence intensity (a.u.)
8 | TCTGTGGCCATCTCCTCCTAGTCCTAGGCTCGCGTCAATGCGGAGTCACCTAGTGCAG | 9610 fluorescence intensity (a.u.)
9 | GCCTCTAATGTCAATCAGTTTCGCTTTCCATCCTTCTCATCGGAGTCACCTAGTGCAG | 10500 fluorescence intensity (a.u.)
10 | ACAGTCAGCTGTGTTTTTGTTATTTGCTTCGATTATCTTCCGGAGTCACCTAGTGCAG | 9310 fluorescence intensity (a.u.)
11 | AGCACACCGAAATTCCAACGAGAACCCCACGCATTATTCCCGGAGTCACCTAGTGCAG | 8210 fluorescence intensity (a.u.)
12 | AACGCAACCACCACAACACGCCATGCATCCCATCAAACCGCGGAGTCACCTAGTGCAG | 9960 fluorescence intensity (a.u.)
13 | CCTATATTTTCTTCATTTACCGGCGCACTCTCGCCCGAACCGGAGTCACCTAGTGCAG | 10100 fluorescence intensity (a.u.)
14 | CACCTTCATGCCCAAAATTTACATGAATTCCTTCCAAACACGGAGTCACCTAGTGCAG | 8100 fluorescence intensity (a.u.)
15 | AGTTCACTTTAGGTCCCTCTATTTGTCGTCCAGTCTGATTCGGAGTCACCTAGTGCAG | 8180 fluorescence intensity (a.u.)
16 | CCGTCACTGCATCCGTTCTACTAATAGTACTCCTACTCACCGGAGTCACCTAGTGCAG | 14400 fluorescence intensity (a.u.)
17 | TCCAGTGTCGTCCTCTGCCGCGTCGGCGTCCCCGTCCGGCCGGAGTCACCTAGTGCAG | 11200 fluorescence intensity (a.u.)
18 | TTATACCACCGGATGCTGACACCATTCATCCGCTCTTCCTCGGAGTCACCTAGTGCAG | 10700 fluorescence intensity (a.u.)
19 | AGCTCAGCTCTTCCGTGCTTGGATTGGTCATTATTTTTTTCGGAGTCACCTAGTGCAG | 9590 fluorescence intensity (a.u.)
20 | AGATCGTATAGTGTCTGTTTTCTTCCCGGACTGTTAGTTGCGGAGTCACCTAGTGCAG | 10800 fluorescence intensity (a.u.)
21 | CACAAAAAAGCGCCGTTGTGTTTGACTTTCTAGCTGGCTACGGAGTCACCTAGTGCAG | 9930 fluorescence intensity (a.u.)

Row | Sequence | binding signal
22 | ACTTCTGCTTCCCTCCACGGGCCTAATTATGGGGTCTGTCCGGAGTCACCTAGTGCAG | 8560 fluorescence intensity (a.u.)
23 | TTGTCTTGTTCATCTGTCCTGACTTGTTCTTTTTGTTGTACGGAGTCACCTAGTGCAG | 9280 fluorescence intensity (a.u.)
24 | GCACACCAATCTCGCTCGCACCACGCCGAAACGCACGTCTCGGAGTCACCTAGTGCAG | 8140 fluorescence intensity (a.u.)
25 | GAAATCAACTACTCCTATTTTCTTCCATGGGGACGGGACACGGAGTCACCTAGTGCAG | 11400 fluorescence intensity (a.u.)
26 | AATATGTCACATCCGGTCCTGATTCGTTTTTTATGGGACTCGGAGTCACCTAGTGCAG | 12400 fluorescence intensity (a.u.)
27 | AGACGCTCTGAAACTCTGTTCTTGTTGGGTCTTTTTTTTTCGGAGTCACCTAGTGCAG | 9500 fluorescence intensity (a.u.)
28 | ACCCTTTTTGTTTTTGTATTTTTATCATTTCTGTCCACAACGGAGTCACCTAGTGCAG | 9760 fluorescence intensity (a.u.)
29 | GTCTTCTAGTGATGCTCGCTATTTGGTTCTGGGGCTTCCTCGGAGTCACCTAGTGCAG | 11900 fluorescence intensity (a.u.)
30 | CCTATCCCTTTCTCCGCCACCTTTGTCATCGCACAGTCCACGGAGTCACCTAGTGCAG | 8420 fluorescence intensity (a.u.)
31 | CCGGCAGCCACCCATGGTCCATCAGTTCTTCACACACTTTCGGAGTCACCTAGTGCAG | 9890 fluorescence intensity (a.u.)
32 | TTTCTGGGAGACATTCATTTCCAGCGATCTCTCTAATCCTCGGAGTCACCTAGTGCAG | 8050 fluorescence intensity (a.u.)
33 | CGCCGCCTCCGCCCGCGCCGCCATCGCCGCCGTGTCTTCTCGGAGTCACCTAGTGCAG | 8420 fluorescence intensity (a.u.)
34 | TTGCCGCTCCCTGCTCTTCTCTTGTGTGAACTCGCGTTTTCGGAGTCACCTAGTGCAG | 11000 fluorescence intensity (a.u.)
35 | CCTTGGGCTGTTTTACCATGGTTTTTGCACACGTGGATGACGGAGTCACCTAGTGCAG | 10100 fluorescence intensity (a.u.)
36 | GGTTGTCGTCGTCGTCGTGGCCTACGCCTTCGCTGCTGCTCGGAGTCACCTAGTGCAG | 10600 fluorescence intensity (a.u.)
37 | TGTGGGTTTATTGTCCAACGTTTAACCGTTCATCTTATTTCGGAGTCACCTAGTGCAG | 9400 fluorescence intensity (a.u.)
38 | ATAGCAGTGGTGGGTAATTTACATAAATTTTTTAAGTGCACGGAGTCACCTAGTGCAG | 11900 fluorescence intensity (a.u.)
39 | TTCTTTTCGGTTTGGATCATCGCAAGCGATCTTTTCACTTCGGAGTCACCTAGTGCAG | 10100 fluorescence intensity (a.u.)
40 | GCCGCTACACTCGATCTACTCTCTCACACACTCCTCTGATCGGAGTCACCTAGTGCAG | 8870 fluorescence intensity (a.u.)
41 | ATCGATTCTCTTCATGTGATCTTCACGTGTCCGGCCAATTCGGAGTCACCTAGTGCAG | 10100 fluorescence intensity (a.u.)
42 | CGCACGCTCCCCGACTCCGACTCCGATCCTCTCTCACGCACGGAGTCACCTAGTGCAG | 8440 fluorescence intensity (a.u.)

Reformatted: results already given
Row,Sequence,binding signal
26,AATATGTCACATCCGGTCCTGATTCGTTTTTTATGGGACTCGGAGTCACCTAGTGCAG,12400 fluorescence intensity (a.u.)
28,ACCCTTTTTGTTTTTGTATTTTTATCATTTCTGTCCACAACGGAGTCACCTAGTGCAG,9760 fluorescence intensity (a.u.)
31,CCGGCAGCCACCCATGGTCCATCAGTTCTTCACACACTTTCGGAGTCACCTAGTGCAG,9890 fluorescence intensity (a.u.)
32,TTTCTGGGAGACATTCATTTCCAGCGATCTCTCTAATCCTCGGAGTCACCTAGTGCAG,8050 fluorescence intensity (a.u.)
33,CGCCGCCTCCGCCCGCGCCGCCATCGCCGCCGTGTCTTCTCGGAGTCACCTAGTGCAG,8420 fluorescence intensity (a.u.)
34,TTGCCGCTCCCTGCTCTTCTCTTGTGTGAACTCGCGTTTTCGGAGTCACCTAGTGCAG,11000 fluorescence intensity (a.u.)
35,CCTTGGGCTGTTTTACCATGGTTTTTGCACACGTGGATGACGGAGTCACCTAGTGCAG,10100 fluorescence intensity (a.u.)
37,TGTGGGTTTATTGTCCAACGTTTAACCGTTCATCTTATTTCGGAGTCACCTAGTGCAG,9400 fluorescence intensity (a.u.)
38,ATAGCAGTGGTGGGTAATTTACATAAATTTTTTAAGTGCACGGAGTCACCTAGTGCAG,11900 fluorescence intensity (a.u.)
39,TTCTTTTCGGTTTGGATCATCGCAAGCGATCTTTTCACTTCGGAGTCACCTAGTGCAG,10100 fluorescence intensity (a.u.)
40,GCCGCTACACTCGATCTACTCTCTCACACACTCCTCTGATCGGAGTCACCTAGTGCAG,8870 fluorescence intensity (a.u.)
41,ATCGATTCTCTTCATGTGATCTTCACGTGTCCGGCCAATTCGGAGTCACCTAGTGCAG,10100 fluorescence intensity (a.u.)
